Measured values as given in US20250376461A1, “INDAZOLE DERIVATIVES FOR TREATING TRPM3-MEDIATED DISORDERS” (Katholieke Universiteit Leuven, priority 2022, published 2025).
Structures were worked out from names or drawings and are uncertain.

The chains behind the UniProt entries cited, without tags or fusion partners. Residues count along the entry.
UniProt J9SQF3, 1-1709 isoform 12: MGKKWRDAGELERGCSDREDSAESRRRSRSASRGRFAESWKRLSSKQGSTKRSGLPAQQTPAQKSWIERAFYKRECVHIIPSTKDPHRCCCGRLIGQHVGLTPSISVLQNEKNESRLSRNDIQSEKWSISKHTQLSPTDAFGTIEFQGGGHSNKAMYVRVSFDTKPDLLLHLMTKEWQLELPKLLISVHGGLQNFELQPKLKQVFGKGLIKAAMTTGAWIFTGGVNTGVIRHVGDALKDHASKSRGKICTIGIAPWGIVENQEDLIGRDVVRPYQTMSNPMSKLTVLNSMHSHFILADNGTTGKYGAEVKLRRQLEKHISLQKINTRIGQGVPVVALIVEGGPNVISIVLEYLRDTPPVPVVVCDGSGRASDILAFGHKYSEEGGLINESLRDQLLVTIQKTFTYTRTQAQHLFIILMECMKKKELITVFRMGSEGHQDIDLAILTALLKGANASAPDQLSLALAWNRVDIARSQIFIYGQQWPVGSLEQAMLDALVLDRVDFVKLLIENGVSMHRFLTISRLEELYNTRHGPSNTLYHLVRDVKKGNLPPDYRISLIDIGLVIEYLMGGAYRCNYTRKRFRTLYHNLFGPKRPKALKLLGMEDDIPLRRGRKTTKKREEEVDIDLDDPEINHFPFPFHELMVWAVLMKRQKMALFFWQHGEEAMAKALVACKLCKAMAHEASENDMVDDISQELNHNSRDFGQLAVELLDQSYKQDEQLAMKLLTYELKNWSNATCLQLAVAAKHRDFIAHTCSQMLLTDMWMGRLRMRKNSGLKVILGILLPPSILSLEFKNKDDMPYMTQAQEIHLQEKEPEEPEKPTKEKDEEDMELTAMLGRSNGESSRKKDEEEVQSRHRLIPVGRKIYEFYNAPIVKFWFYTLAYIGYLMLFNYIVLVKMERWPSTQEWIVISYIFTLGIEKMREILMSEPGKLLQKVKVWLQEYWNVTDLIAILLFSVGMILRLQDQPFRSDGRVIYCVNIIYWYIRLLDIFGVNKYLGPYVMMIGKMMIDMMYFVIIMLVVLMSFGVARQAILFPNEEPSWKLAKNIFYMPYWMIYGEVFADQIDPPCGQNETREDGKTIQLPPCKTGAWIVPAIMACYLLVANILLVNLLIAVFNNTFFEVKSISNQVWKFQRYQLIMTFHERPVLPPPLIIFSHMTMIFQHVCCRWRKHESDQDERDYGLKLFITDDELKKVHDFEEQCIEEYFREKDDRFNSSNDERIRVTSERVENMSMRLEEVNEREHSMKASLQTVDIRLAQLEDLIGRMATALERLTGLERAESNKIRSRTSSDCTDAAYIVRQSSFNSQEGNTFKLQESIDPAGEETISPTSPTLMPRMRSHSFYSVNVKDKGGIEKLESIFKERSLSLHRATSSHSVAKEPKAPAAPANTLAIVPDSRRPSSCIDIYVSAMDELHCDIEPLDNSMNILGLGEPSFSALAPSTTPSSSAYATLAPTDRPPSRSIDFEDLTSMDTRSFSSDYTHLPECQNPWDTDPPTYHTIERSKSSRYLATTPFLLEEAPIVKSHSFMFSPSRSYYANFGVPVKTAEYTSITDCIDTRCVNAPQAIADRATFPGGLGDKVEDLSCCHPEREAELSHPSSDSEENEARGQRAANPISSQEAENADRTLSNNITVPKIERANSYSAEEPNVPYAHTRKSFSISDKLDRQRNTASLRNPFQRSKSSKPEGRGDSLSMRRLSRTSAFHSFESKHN

Target: mouse TRPM3α2 (mTRPM3) ion channel (Mus musculus, UniProt J9SQF3)
Assay: TRPM3 ion channel driven Ca2+ uptake, Fluo-4 AM assay, mTRPM3alpha2 overexpressing flip-in HEK293 cells stimulated with pregnenolone sulfate (50 μM)
Settings: mTRPM3 overexpressing HEK293 cells stimulated with pregnenolone sulfate (50 μM), activity ranges A, B, C
Protocol: Monitoring the TRPM3 Ion Channel Driven Ca2+ Uptake.
In order to monitor the inhibition of the mouse TRPM3α2 (mTRPM3) ion channel by the compounds of the invention, a cellular system making use of an mTRPM3alpha2 or hTRPM3 overexpressing cell line (flip-in HEK293) was used. The TRPM3 channel was stimulated/opened with Pregnenolone sulfate (PS) (50 μM) which results in Ca^2+ influx.
For mTRPM3, the intracellular Ca^2+ was measured with a Calcium responsive dye, Fluor-4 AM ester (Invitrogen). Cells were cultured until a confluence of 80-90%, washed with Versene (Invitrogen) and detached from the surface by a short incubation with 0.05% Trypsin (Invitrogen). The trypsination process was stopped by the addition of complete cell culture medium (DMEM, glutamax, 10% FCS, NEAA, Pen-Strep). Cells were collected and resuspended in Krebs buffer without Calcium at RT.
Prior the cell seeding (±2000 cells/well into a black, 384 well plate (Greiner)) the diluted compound was added in the assay plate, together with the PS dissolved in Krebs buffer containing Calcium. […] Directly after cell addition the plates were read on an Envision fluorescence reader (Perkin Elmer) by an Excitation of 485 nm and emission at 535 nm.
Channel inhibition was calculated compared to a non-PS stimulated control versus a condition stimulated with PS (50 μM) with vehicle. […]

IC50: < 1000 nM
Structure (SMILES): Cn1nc2ccc(OCc3cccnc3C(F)(F)F)cc2c1C(=O)NC(C)(CO)C(N)=O (single isomer, unassigned)
